The other results are listed elsewhere or left out.
Tests used:
Test in all cases: log2 fold change, soluble protein after heating vs DMSO (PISA); higher = thermal stabilisation; K562 cells, 10 uM, 30 min; active = over 0.2 and 3.5 SD of the protein, either way, in both replicates (recomputed)
[1] = compound: CC[C@@H]1C(=O)N(C)c2cnc(Nc3ccc(C(=O)NC4CCN(C)CC4)cc3OC)nc2N1C1CCCC1
Procedure, shortened: (§1)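 Aliquots of K562 cells (2×10^6 cells/mL) treated with 10 μM compound for 30 min were heated for 3 min over 48°C-58°C. After pooling and extraction in PBS with 0.5% NP-40 at 4°C, soluble protein from a 21,000xg, 90 min spin was quantified by TMTpro 16plex LC-MS/MS with channel sums equalised. Thermal stability is expressed against control samples, from duplicates, as a log2 fold change.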

The chains behind the UniProt entries cited, without tags or fusion partners. Where a name states a change or a piece, a line headed by the entry shows the natural chain unless it says otherwise.
UniProt Q9UBX3: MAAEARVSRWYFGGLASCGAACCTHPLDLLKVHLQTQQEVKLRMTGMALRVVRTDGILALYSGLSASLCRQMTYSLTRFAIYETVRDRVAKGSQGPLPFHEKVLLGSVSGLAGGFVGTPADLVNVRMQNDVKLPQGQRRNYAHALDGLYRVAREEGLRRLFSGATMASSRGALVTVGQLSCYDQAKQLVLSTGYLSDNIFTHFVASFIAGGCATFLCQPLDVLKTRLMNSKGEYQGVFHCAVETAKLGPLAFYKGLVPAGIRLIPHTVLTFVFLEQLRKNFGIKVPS
UniProt Q9ULF5: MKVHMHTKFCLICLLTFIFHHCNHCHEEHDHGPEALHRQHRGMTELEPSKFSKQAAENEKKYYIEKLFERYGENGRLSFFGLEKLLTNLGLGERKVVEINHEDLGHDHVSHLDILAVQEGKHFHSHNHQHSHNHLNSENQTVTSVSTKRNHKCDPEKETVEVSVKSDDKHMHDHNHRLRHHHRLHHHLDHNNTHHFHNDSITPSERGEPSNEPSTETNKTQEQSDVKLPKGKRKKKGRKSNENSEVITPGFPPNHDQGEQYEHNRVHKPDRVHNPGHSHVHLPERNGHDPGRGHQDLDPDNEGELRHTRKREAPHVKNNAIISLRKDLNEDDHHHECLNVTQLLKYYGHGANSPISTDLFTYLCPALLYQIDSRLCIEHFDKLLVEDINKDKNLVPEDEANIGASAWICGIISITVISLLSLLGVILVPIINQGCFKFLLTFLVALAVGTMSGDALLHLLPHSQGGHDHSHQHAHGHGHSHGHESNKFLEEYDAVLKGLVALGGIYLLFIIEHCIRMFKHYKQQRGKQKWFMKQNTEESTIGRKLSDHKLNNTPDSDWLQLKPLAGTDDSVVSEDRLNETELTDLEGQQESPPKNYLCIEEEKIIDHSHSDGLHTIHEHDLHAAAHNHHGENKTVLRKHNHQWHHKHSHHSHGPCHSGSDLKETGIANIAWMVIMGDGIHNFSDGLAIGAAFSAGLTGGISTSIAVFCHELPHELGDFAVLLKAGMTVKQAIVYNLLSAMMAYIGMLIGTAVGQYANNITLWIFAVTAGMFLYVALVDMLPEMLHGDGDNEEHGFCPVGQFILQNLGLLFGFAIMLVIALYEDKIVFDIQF
UniProt Q6NUK1: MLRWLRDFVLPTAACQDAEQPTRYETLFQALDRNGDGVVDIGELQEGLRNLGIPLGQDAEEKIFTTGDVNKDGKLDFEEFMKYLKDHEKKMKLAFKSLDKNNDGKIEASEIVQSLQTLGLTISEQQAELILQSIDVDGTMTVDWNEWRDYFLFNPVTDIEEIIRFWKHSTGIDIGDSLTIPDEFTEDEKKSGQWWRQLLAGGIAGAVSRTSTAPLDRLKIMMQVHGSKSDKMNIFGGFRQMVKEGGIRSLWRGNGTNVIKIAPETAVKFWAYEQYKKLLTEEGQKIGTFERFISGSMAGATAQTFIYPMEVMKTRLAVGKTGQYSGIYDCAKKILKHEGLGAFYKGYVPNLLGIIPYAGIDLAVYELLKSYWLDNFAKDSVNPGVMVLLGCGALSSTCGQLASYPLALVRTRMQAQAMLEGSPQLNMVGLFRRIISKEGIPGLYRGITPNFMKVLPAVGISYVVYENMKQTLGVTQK
UniProt Q8WUX1, whole entry, looked up: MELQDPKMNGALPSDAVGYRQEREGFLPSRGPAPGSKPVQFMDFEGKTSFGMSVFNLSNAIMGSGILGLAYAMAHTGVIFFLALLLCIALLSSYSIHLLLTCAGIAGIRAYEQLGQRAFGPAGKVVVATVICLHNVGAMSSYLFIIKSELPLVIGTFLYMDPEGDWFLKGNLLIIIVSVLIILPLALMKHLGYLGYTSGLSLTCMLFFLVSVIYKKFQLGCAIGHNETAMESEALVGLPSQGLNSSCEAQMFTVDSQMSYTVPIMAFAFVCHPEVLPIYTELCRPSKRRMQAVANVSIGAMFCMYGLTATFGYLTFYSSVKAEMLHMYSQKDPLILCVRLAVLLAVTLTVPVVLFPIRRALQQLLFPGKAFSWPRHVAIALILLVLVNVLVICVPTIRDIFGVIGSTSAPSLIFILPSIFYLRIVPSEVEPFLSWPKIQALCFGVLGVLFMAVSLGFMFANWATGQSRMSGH
UniProt Q9Y289: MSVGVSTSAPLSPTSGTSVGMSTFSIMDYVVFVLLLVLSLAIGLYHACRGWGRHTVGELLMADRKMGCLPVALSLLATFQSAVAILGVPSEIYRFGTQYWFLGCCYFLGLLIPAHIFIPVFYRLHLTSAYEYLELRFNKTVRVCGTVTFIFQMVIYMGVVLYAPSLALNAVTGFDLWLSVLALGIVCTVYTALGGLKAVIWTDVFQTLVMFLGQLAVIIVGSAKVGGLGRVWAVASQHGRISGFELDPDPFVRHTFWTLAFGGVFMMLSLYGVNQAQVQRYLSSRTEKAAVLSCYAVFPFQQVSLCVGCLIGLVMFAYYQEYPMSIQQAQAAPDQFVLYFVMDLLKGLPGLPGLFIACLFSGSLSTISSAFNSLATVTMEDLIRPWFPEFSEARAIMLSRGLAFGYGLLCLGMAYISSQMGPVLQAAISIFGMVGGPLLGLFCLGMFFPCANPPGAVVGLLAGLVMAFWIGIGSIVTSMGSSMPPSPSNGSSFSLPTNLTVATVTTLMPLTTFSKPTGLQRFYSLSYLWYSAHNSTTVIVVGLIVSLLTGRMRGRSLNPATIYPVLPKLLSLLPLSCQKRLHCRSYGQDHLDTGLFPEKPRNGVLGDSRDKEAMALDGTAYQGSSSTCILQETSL
UniProt Q9UP95: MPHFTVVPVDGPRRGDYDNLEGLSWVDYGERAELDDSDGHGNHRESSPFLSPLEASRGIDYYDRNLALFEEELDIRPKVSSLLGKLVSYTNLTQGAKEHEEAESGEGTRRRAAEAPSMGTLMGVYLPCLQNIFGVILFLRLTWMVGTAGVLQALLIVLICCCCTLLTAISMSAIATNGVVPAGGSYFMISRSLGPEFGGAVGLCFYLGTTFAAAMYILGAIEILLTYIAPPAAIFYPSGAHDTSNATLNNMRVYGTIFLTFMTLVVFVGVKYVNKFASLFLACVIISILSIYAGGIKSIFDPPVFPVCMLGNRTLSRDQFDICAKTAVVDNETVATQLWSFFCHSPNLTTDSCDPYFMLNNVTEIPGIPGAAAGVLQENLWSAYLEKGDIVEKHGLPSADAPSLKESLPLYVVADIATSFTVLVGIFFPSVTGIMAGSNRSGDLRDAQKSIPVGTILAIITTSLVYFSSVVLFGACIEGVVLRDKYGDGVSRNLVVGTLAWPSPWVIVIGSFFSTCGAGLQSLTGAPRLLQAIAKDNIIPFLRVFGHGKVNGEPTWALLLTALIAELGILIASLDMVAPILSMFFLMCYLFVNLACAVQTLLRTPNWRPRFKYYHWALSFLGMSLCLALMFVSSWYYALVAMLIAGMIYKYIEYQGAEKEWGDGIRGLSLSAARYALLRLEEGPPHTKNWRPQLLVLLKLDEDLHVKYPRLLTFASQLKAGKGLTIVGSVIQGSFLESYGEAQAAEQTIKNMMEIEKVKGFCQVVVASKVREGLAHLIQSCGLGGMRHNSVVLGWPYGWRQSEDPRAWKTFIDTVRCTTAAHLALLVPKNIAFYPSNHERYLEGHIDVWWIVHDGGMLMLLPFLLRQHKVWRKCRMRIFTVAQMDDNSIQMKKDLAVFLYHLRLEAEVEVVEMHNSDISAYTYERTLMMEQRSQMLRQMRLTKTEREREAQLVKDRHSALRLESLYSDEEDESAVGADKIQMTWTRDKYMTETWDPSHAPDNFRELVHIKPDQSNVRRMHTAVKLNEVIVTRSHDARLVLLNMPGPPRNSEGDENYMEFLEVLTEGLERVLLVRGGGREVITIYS
UniProt Q8TB61: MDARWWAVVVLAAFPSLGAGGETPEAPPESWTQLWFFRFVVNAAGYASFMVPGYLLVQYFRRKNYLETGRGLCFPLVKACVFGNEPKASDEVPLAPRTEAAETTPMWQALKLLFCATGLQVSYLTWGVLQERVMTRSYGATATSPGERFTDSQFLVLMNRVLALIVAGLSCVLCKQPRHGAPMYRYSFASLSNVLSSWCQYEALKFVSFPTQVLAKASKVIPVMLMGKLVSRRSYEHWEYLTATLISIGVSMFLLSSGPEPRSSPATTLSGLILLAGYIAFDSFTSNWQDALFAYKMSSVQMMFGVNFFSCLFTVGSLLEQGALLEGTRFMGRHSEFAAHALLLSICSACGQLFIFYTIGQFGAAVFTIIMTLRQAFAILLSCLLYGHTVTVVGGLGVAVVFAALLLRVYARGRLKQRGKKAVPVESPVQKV
UniProt Q5BKX6: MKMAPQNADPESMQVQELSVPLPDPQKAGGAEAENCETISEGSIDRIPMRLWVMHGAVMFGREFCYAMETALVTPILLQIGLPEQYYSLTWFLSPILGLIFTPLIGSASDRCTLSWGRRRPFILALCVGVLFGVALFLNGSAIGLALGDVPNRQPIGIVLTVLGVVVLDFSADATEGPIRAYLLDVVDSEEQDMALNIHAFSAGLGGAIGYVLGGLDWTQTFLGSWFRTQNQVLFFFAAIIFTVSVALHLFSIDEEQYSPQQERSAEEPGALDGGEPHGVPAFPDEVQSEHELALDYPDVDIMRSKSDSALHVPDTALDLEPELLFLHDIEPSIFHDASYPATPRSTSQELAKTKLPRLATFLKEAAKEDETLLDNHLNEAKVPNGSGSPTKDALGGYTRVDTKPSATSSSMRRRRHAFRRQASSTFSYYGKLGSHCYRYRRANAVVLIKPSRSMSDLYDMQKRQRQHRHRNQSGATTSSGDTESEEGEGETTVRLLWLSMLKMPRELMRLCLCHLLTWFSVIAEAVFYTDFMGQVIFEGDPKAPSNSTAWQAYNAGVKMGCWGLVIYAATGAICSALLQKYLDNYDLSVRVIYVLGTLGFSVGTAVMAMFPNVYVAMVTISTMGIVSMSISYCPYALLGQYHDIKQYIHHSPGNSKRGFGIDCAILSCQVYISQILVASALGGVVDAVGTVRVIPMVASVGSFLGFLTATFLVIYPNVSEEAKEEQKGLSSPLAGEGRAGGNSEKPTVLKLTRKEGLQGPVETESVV
UniProt Q9H1U9: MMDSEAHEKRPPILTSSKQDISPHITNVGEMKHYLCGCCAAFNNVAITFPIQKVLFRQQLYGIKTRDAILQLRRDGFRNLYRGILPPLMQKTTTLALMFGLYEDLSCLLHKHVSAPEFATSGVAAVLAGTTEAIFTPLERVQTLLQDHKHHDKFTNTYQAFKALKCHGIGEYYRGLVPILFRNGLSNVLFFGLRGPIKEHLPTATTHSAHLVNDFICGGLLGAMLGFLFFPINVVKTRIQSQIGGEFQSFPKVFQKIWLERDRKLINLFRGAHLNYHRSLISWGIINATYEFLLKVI
UniProt Q15043: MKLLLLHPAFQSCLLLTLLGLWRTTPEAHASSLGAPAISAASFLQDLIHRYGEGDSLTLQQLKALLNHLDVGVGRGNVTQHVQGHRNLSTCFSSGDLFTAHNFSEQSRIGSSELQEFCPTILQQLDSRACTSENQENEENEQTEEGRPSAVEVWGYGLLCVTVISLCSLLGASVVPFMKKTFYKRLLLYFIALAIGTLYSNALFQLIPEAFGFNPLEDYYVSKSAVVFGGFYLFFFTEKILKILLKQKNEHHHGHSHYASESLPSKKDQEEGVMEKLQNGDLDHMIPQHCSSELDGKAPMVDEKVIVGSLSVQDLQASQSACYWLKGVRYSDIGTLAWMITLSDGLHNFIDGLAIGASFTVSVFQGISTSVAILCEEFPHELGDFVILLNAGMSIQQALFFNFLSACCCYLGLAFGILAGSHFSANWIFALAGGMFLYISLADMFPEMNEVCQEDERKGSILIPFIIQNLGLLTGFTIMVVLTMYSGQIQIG
UniProt P53007, whole entry, looked up: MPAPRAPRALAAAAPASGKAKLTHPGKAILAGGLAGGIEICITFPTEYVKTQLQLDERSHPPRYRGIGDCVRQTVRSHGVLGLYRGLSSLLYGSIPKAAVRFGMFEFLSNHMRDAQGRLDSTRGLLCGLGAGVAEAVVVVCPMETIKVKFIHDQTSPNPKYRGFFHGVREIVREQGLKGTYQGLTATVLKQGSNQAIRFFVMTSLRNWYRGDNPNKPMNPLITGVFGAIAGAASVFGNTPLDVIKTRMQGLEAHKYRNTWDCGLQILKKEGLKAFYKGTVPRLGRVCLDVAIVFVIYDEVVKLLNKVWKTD
UniProt Q96BI1: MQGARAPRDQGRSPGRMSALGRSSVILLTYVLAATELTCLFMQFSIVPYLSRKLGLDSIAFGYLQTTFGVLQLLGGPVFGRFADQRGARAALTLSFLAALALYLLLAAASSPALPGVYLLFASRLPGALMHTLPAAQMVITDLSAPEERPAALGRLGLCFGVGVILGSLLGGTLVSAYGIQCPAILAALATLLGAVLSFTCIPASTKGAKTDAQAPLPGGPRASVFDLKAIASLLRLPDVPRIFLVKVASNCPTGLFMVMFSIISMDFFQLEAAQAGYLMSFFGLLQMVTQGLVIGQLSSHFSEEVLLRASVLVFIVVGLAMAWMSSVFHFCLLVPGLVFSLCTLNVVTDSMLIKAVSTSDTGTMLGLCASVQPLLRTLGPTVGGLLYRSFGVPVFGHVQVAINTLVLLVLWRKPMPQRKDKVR

volasertib = compound: CC[C@@H]1C(=O)N(C)c2cnc(Nc3ccc(C(=O)N[C@H]4CC[C@H](N5CCN(CC6CC6)CC5)CC4)cc3OC)nc2N1C(C)C [volasertib]
Procedure, shortened: as §1

[2] = compound: CC[C@H](C)N1C=C(C2=C(C=C(C=C21)C3=CN=C(C=C3)N4CCNCC4)C(=O)NCC5=C(C=C(NC5=O)C)C)C
Procedure, shortened: as §1

epoxomicin = compound: CC[C@H](C)[C@@H](C(=O)N[C@@H]([C@@H](C)O)C(=O)N[C@@H](CC(C)C)C(=O)[C@]1(CO1)C)NC(=O)[C@H]([C@@H](C)CC)N(C)C(=O)C [epoxomicin]
Procedure, shortened: as §1

[3] = compound: CCn1c(C(=O)N(C2CC2)C2CC2)cc2c3c(ncn3C)c(Nc3cc(C)n(C)n3)nc21
Procedure, shortened: as §1

[4] = compound: CCn1cc(-c2ccnc3[nH]c(-c4cccc(CN(C)C)c4)cc23)c(-c2ccc(NC(=O)N(C)C)cc2)n1
Procedure, shortened: as §1

[5] = compound: CN(C)CC(=O)Nc1ccc2[nH]c(=O)c3ccccc3c2c1
Procedure, shortened: as §1

rosiglitazone = compound: CN(CCOC1=CC=C(C=C1)C[C@H]2C(=O)NC(=O)S2)C3=CC=CC=N3 (racemic) [rosiglitazone]
Procedure, shortened: as §1

[6] = compound: CN1C2=C(C3=C1C(=O)N(N=C3)CC4=CC(=CC=C4)N)SC(=C2)S(=O)C
Procedure, shortened: as §1

[7] = compound: CN1CCC(CNc2ccc3ncc(-c4cccc(OC(F)(F)F)c4)n3n2)CC1
Procedure, shortened: as §1

saracatinib = compound: CN1CCN(CCOc2cc(OC3CCOCC3)c3c(Nc4c(Cl)ccc5c4OCO5)ncnc3c2)CC1 [saracatinib]
Procedure, shortened: as §1

sotrastaurin = compound: CN1CCN(c2nc(C3=C(c4c[nH]c5ccccc45)C(=O)NC3=O)c3ccccc3n2)CC1 [sotrastaurin]
Procedure, shortened: as §1

alvocidib = compound: CN1CC[C@H](c2c(O)cc(O)c3c(=O)cc(-c4ccccc4Cl)oc23)[C@H](O)C1 [alvocidib]
Procedure, shortened: as §1

Tubastatin A = compound: CN1CCc2c(c3ccccc3n2Cc2ccc(C(=O)NO)cc2)C1 [Tubastatin A]
Procedure, shortened: as §1

[8] = compound: CNC(=O)C1=CC=CC=C1NC2=NC(=NC=C2Cl)NC3=C(C=C(C=C3)N4CCOCC4)OC
Procedure, shortened: as §1

defactinib = compound: CNC(=O)c1ccc(Nc2ncc(C(F)(F)F)c(NCc3nccnc3N(C)S(C)(=O)=O)n2)cc1 [defactinib]
Procedure, shortened: as §1

rucaparib = compound: CNCc1ccc(-c2[nH]c3cc(F)cc4c3c2CCNC4=O)cc1 [rucaparib]
Procedure, shortened: as §1

[9] = compound: CNc1nc(-c2ccc3c(N)n[nH]c3c2)cc(N2C[C@@H](C(=O)NC3CCCCC3)CC[C@H]2C)n1
Procedure, shortened: as §1

encorafenib = compound: COC(=O)N[C@@H](C)CNc1nccc(-c2cn(C(C)C)nc2-c2cc(Cl)cc(NS(C)(=O)=O)c2F)n1 [encorafenib]
Procedure, shortened: as §1

[10] = compound: COC(=O)[C@H](CCSC)NC(=O)C1=C(C=C(C=C1)NC[C@H](CS)N)C2=CC=CC=C2
Procedure, shortened: as §1

Measured: log2 fold change

SLC25A10 isoform 2 (UniProt Q9UBX3)
inactive: [1] 0.007 | volasertib 0.053 | [2] -0.054 | epoxomicin -0.009 | [3] 0.02 | [4] -0.038 | [5] 0.007 | rosiglitazone -0.001 | [6] -0.016 | [7] 0.133 | saracatinib 0.084 | sotrastaurin -0.003 | alvocidib -0.009 | Tubastatin A -0.008 | [8] -0.006 | defactinib -0.026 | rucaparib -0.016 | [9] 0.001 | encorafenib 0.017 | [10] 0.003

SLC1A4 (UniProt P43007)
inactive: [1] 0.156 | volasertib 0.024 | [2] -0.05 | epoxomicin -0.01 | [3] 0.009 | [4] -0.014 | [5] -0.06 | rosiglitazone -0.031 | [6] -0.154 | [7] 0.195 | saracatinib 0.078 | sotrastaurin 0.023 | alvocidib 0.004 | Tubastatin A -0.027 | [8] -0.095 | defactinib -0.009 | rucaparib -0.045 | [9] 0.074 | encorafenib 0.012 | [10] 0.032

SLC2A1 (UniProt P11166)
inactive: [1] 0.081 | volasertib 0.126 | [2] -0.049 | epoxomicin -0.015 | [3] -0.001 | [4] 0.001 | [5] 0.005 | rosiglitazone -0.006 | [6] 0.018 | [7] 0.14 | saracatinib -0.009 | sotrastaurin 0.072 | alvocidib -0.003 | Tubastatin A -0.034 | [8] -0.05 | defactinib -0.026 | rucaparib -0.05 | [9] -0.006 | encorafenib -0.005 | [10] 0.027

SLC39A10 (UniProt Q9ULF5)
inactive: [1] 0.151 | volasertib 0.083 | [2] -0.062 | epoxomicin 0.023 | [3] -0.007 | [4] -0.019 | [5] -0.053 | rosiglitazone 0.113 | [6] -0.061 | [7] 0.124 | saracatinib 0.065 | sotrastaurin 0.074 | alvocidib -0.021 | Tubastatin A -0.022 | [8] -0.1 | defactinib -0.005 | rucaparib -0.034 | [9] 0.041 | encorafenib -0.009 | [10] 0.038

SLC25A24 (UniProt Q6NUK1)
inactive: [1] 0.014 | volasertib 0.057 | [2] -0.039 | epoxomicin -0.027 | [3] 0.014 | [4] 0.006 | [5] -0.026 | rosiglitazone 0.008 | [6] -0.015 | [7] 0.078 | saracatinib 0.049 | sotrastaurin 0.046 | alvocidib -0.01 | Tubastatin A -0.032 | [8] 0.011 | defactinib -0.008 | rucaparib -0.018 | [9] -0.05 | encorafenib -0.021 | [10] 0.028

SLC38A5 (UniProt Q8WUX1)
inactive: [1] 0.076 | volasertib 0.067 | [2] -0.046 | epoxomicin 0.04 | [3] 0.014 | [4] -0.062 | [5] 0.007 | rosiglitazone 0.031 | [6] -0.057 | [7] 0.081 | saracatinib 0.036 | sotrastaurin 0.015 | alvocidib -0.01 | Tubastatin A -0.006 | [8] -0.08 | defactinib -0.063 | rucaparib -0.03 | [9] 0.05 | encorafenib 0.013 | [10] 0.017

SLC5A6 (UniProt Q9Y289)
inactive: [1] 0.063 | volasertib -0.021 | [2] -0.013 | epoxomicin -0.008 | [3] 0.024 | [4] -0.069 | [5] -0.01 | rosiglitazone 0.033 | [6] -0.056 | [7] 0.152 | saracatinib 0.058 | sotrastaurin 0.048 | alvocidib -0.005 | Tubastatin A 0.009 | [8] -0.035 | defactinib -0.038 | rucaparib 0.029 | [9] 0.042 | encorafenib 0.035 | [10] 0.028

SLC12A4 (UniProt Q9UP95)
inactive: [1] 0.037 | volasertib -0.04 | [2] -0.029 | epoxomicin 0.033 | [3] -0.001 | [4] -0.015 | [5] 0.061 | rosiglitazone -0.016 | [6] -0.005 | [7] -0.185 | saracatinib 0.023 | sotrastaurin 0.008 | alvocidib -0.023 | Tubastatin A 0.023 | [8] 0.005 | defactinib 0.024 | rucaparib 0.028 | [9] -0.043 | encorafenib -0.007 | [10] 0.01

SLC35B2 (UniProt Q8TB61)
inactive: [1] -0.015 | volasertib -0.059 | [2] -0.04 | epoxomicin 0.004 | [3] 0.03 | [4] 0.014 | [5] 0 | rosiglitazone -0.008 | [6] -0.039 | [7] 0.032 | saracatinib 0.016 | sotrastaurin -0.004 | alvocidib 0.018 | Tubastatin A -0.052 | [8] 0.041 | defactinib -0.053 | rucaparib 0.014 | [9] -0.056 | encorafenib -0.03 | [10] 0

SLC26A6 (UniProt Q9BXS9)
inactive: [1] 0.042 | volasertib 0.031 | [2] -0.01 | epoxomicin 0.087 | [3] -0.009 | [4] -0.007 | [5] 0.042 | rosiglitazone 0.057 | [6] 0.081 | [7] 0.025 | saracatinib 0.072 | sotrastaurin 0.071 | alvocidib 0.004 | Tubastatin A -0.055 | [8] -0.154 | defactinib -0.05 | rucaparib 0.061 | [9] -0.06 | encorafenib -0.16 | [10] 0.137

SLC45A4 isoform 3 (UniProt Q5BKX6)
inactive: [1] 0.069 | volasertib 0.047 | [2] -0.084 | epoxomicin -0.041 | [3] 0.006 | [4] -0.091 | [5] -0.037 | rosiglitazone 0.031 | [6] -0.079 | [7] 0.199 | saracatinib 0.043 | sotrastaurin -0.032 | alvocidib 0.053 | Tubastatin A -0.111 | [8] -0.068 | defactinib 0.004 | rucaparib 0.181 | [9] -0.058 | encorafenib 0.012 | [10] 0.048

SLC30A6 isoform 2 (UniProt Q6NXT4)
inactive: [1] 0.051 | volasertib -0.051 | [2] 0.002 | epoxomicin 0.015 | [3] -0.055 | [4] 0.047 | [5] -0.146 | rosiglitazone 0.137 | [6] 0.022 | [7] 0.145 | saracatinib -0.031 | sotrastaurin 0.066 | alvocidib -0.059 | Tubastatin A 0.026 | [8] -0.056 | defactinib -0.056 | rucaparib -0.046 | [9] 0 | encorafenib -0.008 | [10] 0.142

SLC25A51 (UniProt Q9H1U9)
inactive: [1] 0.081 | volasertib 0.077 | [2] -0.022 | epoxomicin -0.002 | [3] 0.01 | [4] 0.005 | [5] 0.003 | rosiglitazone 0.018 | [6] -0.023 | [7] 0.058 | saracatinib 0.056 | sotrastaurin 0.073 | alvocidib -0.015 | Tubastatin A 0.016 | [8] -0.026 | defactinib -0.003 | rucaparib -0.066 | [9] -0.003 | encorafenib 0.018 | [10] 0.017

SLC39A14 (UniProt Q15043)
inactive: [1] -0.002 | volasertib 0.259 | [2] -0.012 | epoxomicin -0.052 | [3] 0.074 | [4] -0.02 | [5] -0.023 | rosiglitazone -0.024 | [6] -0.047 | [7] -0.139 | saracatinib 0.007 | sotrastaurin 0.034 | alvocidib 0.024 | Tubastatin A 0.005 | [8] -0.033 | defactinib -0.014 | rucaparib -0.04 | [9] -0.008 | encorafenib -0.023 | [10] 0.055

SLC25A1 (UniProt P53007)
inactive: [1] -0.008 | volasertib -0.031 | [2] -0.029 | epoxomicin 0.014 | [3] 0.03 | [4] -0.004 | [5] 0.004 | rosiglitazone 0.005 | [6] -0.038 | [7] 0.097 | saracatinib 0.079 | sotrastaurin 0.047 | alvocidib 0.023 | Tubastatin A -0.056 | [8] -0.008 | defactinib -0.002 | rucaparib -0.011 | [9] 0.002 | encorafenib -0.007 | [10] 0.03

SLC22A18 (UniProt Q96BI1)
inactive: [1] 0.021 | volasertib -0.029 | [2] -0.067 | epoxomicin -0.034 | [3] 0.076 | [4] -0.053 | [5] 0.024 | rosiglitazone -0.005 | [6] 0.006 | [7] 0.048 | saracatinib 0.058 | sotrastaurin 0.056 | alvocidib -0.128 | Tubastatin A -0.019 | [8] 0.022 | defactinib -0.022 | rucaparib -0.046 | [9] -0.009 | encorafenib -0.012 | [10] -0.018

2 entries drawn at random from the list so far:
SLC45A4 isoform 3 (UniProt Q5BKX6)
inactive: [1] 0.069 | volasertib 0.047 | [2] -0.084 | epoxomicin -0.041 | [3] 0.006 | [4] -0.091 | [5] -0.037 | rosiglitazone 0.031 | [6] -0.079 | [7] 0.199 | saracatinib 0.043 | sotrastaurin -0.032 | alvocidib 0.053 | Tubastatin A -0.111 | [8] -0.068 | defactinib 0.004 | rucaparib 0.181 | [9] -0.058 | encorafenib 0.012 | [10] 0.048

SLC30A6 isoform 2 (UniProt Q6NXT4)
inactive: [1] 0.051 | volasertib -0.051 | [2] 0.002 | epoxomicin 0.015 | [3] -0.055 | [4] 0.047 | [5] -0.146 | rosiglitazone 0.137 | [6] 0.022 | [7] 0.145 | saracatinib -0.031 | sotrastaurin 0.066 | alvocidib -0.059 | Tubastatin A 0.026 | [8] -0.056 | defactinib -0.056 | rucaparib -0.046 | [9] 0 | encorafenib -0.008 | [10] 0.142
